{"source": "patent US4963563A", "about": "“6-substituted-1,2,3,4-tetrahydroisoquinolines” (Abbott Laboratories, priority 1989, dated 1990)", "note": "Structures can show the parent of a compound that is named as a salt."}
{"tested_on": "alpha-2-receptor", "assay": "Radioligand binding, alpha-2 adrenoceptor ([3H]-rauwolscine, rat cerebral cortices)", "conditions": "ratio of Ki at alpha-1 to Ki at alpha-2"}
{"smiles": "COc1ccc2c(c1)CCN(CCCc1cccs1)C2.Cl", "note": "[Example 2, 1,2,3,4-Tetrahydro-6-methoxy-N-3-(2-thienyl)propylisoquinoline hydrochloride]", "Alpha-2 Selectivity Ki α1 /Ki α2": 35}
{"smiles": "COc1ccc2c(c1)CCN(CCCc1cccc(F)c1)C2.Cl", "note": "[Example 5, 1,2,3,4-Tetrahydro-6-methoxy-N-3-(m-fluorophenyl)propyl isoquinoline hydrochloride]", "Alpha-2 Selectivity Ki α1 /Ki α2": 45}
{"smiles": "COc1ccc2c(c1)CCN(CCCc1ccco1)C2.Cl", "note": "[Example 6, 1,2,3,4-Tetrahydro-6-methoxy-N-3-(2-furyl)propylisoquinoline hydrochloride]", "Alpha-2 Selectivity Ki α1 /Ki α2": 69}
{"smiles": "COc1ccc2c(c1)CCN(CCCc1ccccc1)C2.Cl", "note": "[Example 7, 1,2,3,4-Tetrahydro-6-methoxy-N-(3-phenylpropyl)isoquinoline hydrochloride]", "Alpha-2 Selectivity Ki α1 /Ki α2": 37}
{"smiles": "COc1cccc(CCCN2CCc3cc(OC)ccc3C2)c1.Cl", "note": "[Example 8, 1,2,3,4-Tetrahydro-6-methoxy-N-3-(3-methoxyphenyl)propyl isoquinoline hydrochloride]", "Alpha-2 Selectivity Ki α1 /Ki α2": 16}
{"smiles": "Cc1ccc2c(c1)CCN(CCCc1ccccc1)C2", "note": "[Example 13, 1,2,3,4-Tetrahydro-6-methyl-N-(3-(phenylpropylisoquinoline Hydrochloride]", "Alpha-2 Selectivity Ki α1 /Ki α2": 20}
